Here are results for 106 sequences from PubChem BioAssay AID1508600 (Functional Genomics Laboratory (NCATS/FGL), 2020).

Among all 53,000 sequences or so, about 3,700 (7%) were called active.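 How the source made its calls: active means gene knockdowns whose robust z-score for IL-1 alpha signal is at least 2 or at most -2, so actives lie on both sides; inactive means the rest.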 The list shows a part of the results.

A short description of this assay: Components of the Cytosolic LPS Sensing Pathway: Gene Identification via Genome-wide siRNA Screen.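 Further: robust z of the log signal after scaling to non-targeting control siRNA wells of the plate.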 Conditions: RAW264.7 macrophages, IL-1a HTRF, actives lie on both sides, screened at 100 nM (by protocol), cells primed 5 h with Pam3CSK4 first. The method in brief:
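Mouse macrophage line RAW264.7 is transfected with siRNA (100 nM final), grown 48h, primed with TLR ligand Pam3CSK4 5 h and given intracellular LipidA 24 h. IL-1a in supernatant is read by HTRF and viability by luminescence.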
In general terms: In TR-FRET formats the signal depends on donor and acceptor labels being close together.
Turning to GGUACAUAUCCAUUCACAGTT against Cnr1, the z-score is inactive: -0.148.

For CGUUUGGGAUCGAAAGUCATT against Tbl1x, the z-score is inactive: -0.644.

Consider GCCGGCAACACAUUUCUGUTT against Sobp, for which the z-score was inactive: 0.105.

As to GGUGGAACACAUAUUUUAATT against Tbc1d13, the z-score is inactive: 0.837.

As to CCAACUUCGAUGCUGAGAGTT against Anxa2, the z-score was inactive: -1.8.

Consider GGAGAACUUCAAAACUUUUTT against Tbx1, for which the z-score is inactive: -0.0203.

For the sequence CGGAUCAUCAUGUACACUGTT against Tpsg1, the z-score is inactive: -0.633.

With GGAAUAUCAGCCAUAAGUUTT against Cplx4, the z-score is inactive: 1.78.

For the sequence GCUAACCACCACAGUAUGATT against Tmem42, the z-score is inactive: -0.884.

As to GGCUGGAGUAGAAGAACUGTT against Hsbp1, the z-score was inactive: 0.239.

With GCUGGCUGAAACAUCUACCTT against Trappc1, the z-score is inactive: 0.706.

In the case of GGAAGAAUGUGAUGACUCATT against Zfp11, the z-score was inactive: -0.471.

In the case of GGGAGAAGAAUUUGAACAGTT against Ak1, the z-score was inactive: 0.557.

As for GCCAUGGUACACUACAUCUTT against Olfml1, the z-score was inactive: 0.318.

In the case of GCACCUUCCUAAUCACAGCTT against Rxfp4, the z-score was inactive: 0.0928.

GGAAGACCAAGAGGAAAACTT against Taf1d: the z-score was inactive: -0.616.

With GGUUUUGUACAAAAGGUCCTT against Ube2e2, the z-score is inactive: 0.31.

Regarding GCACAUUGCUCCCAAGAAUTT against Smg6, the z-score is inactive: -1.03.

As for UAGAUGCAUGUUCCUCCUCTT against Olfr1158, the z-score was inactive: 0.59.

With GCCCAAUCACACCAAGACATT against Doc2b, the z-score was inactive: 0.357.

As for CCAUCAGUAUUCACAACAATT against Usp42, the z-score is active: -3.12.

Regarding “CCCGAAGAGCAAAAAAGAUTT against 1110004F10Rik”, the z-score is inactive: -1.5.

With GGCCAAGAUUAAGUUCUUGTT against Il12rb1, the z-score was inactive: 1.05.

On to ACAAGAUUGGGAUCAUCUATT against Rpl23a, for which the z-score is inactive: 0.521.

Consider GGUAACAUCUAUAUAUCACTT against Rb1, for which the z-score was inactive: 1.56.

As for GGUAUCGAAGAACUGGAAATT against Spast, the z-score was inactive: 0.547.

Turning to GGUUGUUUUGCUUGUUGUATT against Tsc22d1, the z-score is inactive: 1.67.

On to CCUUGAACAUAUAUGUCAUTT against Fem1a, for which the z-score was inactive: -0.0399.

With GGUUUUGUCUGAUAAAACATT against Arsb, the z-score is inactive: 1.02.

Consider “GCACAACGGUUCGUUGUUATT against 4933427E11Rik”, for which the z-score is inactive: -1.17.

For the sequence GCACUUAUUUAGAAGACUGTT against Commd3, the z-score is inactive: 0.25.

Consider GCUAUUCCCAUGACGUGUUTT against Gab1, for which the z-score was inactive: -0.204.

For GCUCAAGUGCGGAGAAUAATT against Sgms1, the z-score is inactive: -1.55.

On to GGCGAUGUGAAAAUCUUAATT against Xpnpep2, for which the z-score was active: 3.65.

As to GUGUCAACCUAAGCUUGGCTT against Tlx3, the z-score was inactive: -1.19.

As to GGGAAGGGAGACAAGCAAATT against Slc2a10, the z-score was inactive: -0.43.

In the case of GGAAAAUGUAAGGACUUGATT against Rnase2b, the z-score is inactive: -0.718.

For GGAAGUGAUUUACAGUUUCTT against Wwtr1, the z-score was inactive: 1.11.

On to GGACUAUCAUCUGAUGCCATT against Klhl18, for which the z-score is active: 2.45.

In the case of GGUAGUUGUUCUAUGUUUUTT against Olfr967, the z-score was inactive: -1.07.

As to GGCAUCAGCCUUCUCAAAGTT against Mmp21, the z-score is inactive: -0.781.

In the case of “GCUGCAUUACACGUUCUAUTT against 4930590J08Rik”, the z-score is inactive: 0.131.

As for GCAAAAUAGCCCAGUAUAATT against Pax6, the z-score was active: -5.02.

For CCAAAGCUAAAACGGGUGGTT against Tppp3, the z-score is inactive: 0.597.

As for CGAGCUGGAUCUGUUUAGATT against Nsmce1, the z-score is inactive: 0.357.

Regarding GCAGCUUGCUAAAAAUACATT against Lrrc20, the z-score is inactive: 1.05.

As for GAAAAGAGUUUCCACGAGATT against Il19, the z-score was inactive: 0.0645.

Consider GGAUUAUGGAGUCUUAAAGTT against Prdx1, for which the z-score is inactive: -0.909.

As to “GCCCGACAGGAGAUAUUUATT against B230340J04Rik”, the z-score was inactive: 1.67.

For the sequence GGCUAACUUCCCAUUUAGCTT against Hmga1, the z-score is inactive: 0.136.

Regarding CGGAUAUCCACAAAUAUCGTT against Atp1b3, the z-score was inactive: 0.508.

For GGUUGCUCAUUACAGUUAATT against Samd10, the z-score was inactive: 0.374.

As for GCACAACCAUAAUUCCAAATT against Olfr828, the z-score was inactive: -0.343.

In the case of “GCUCGUUGUCCAUAGUAGATT against Olfr1273-ps”, the z-score is inactive: 0.178.

For the sequence GCACUUCUACCGGAAAGUUTT against Mad2l1bp, the z-score is inactive: -0.761.

With GGUAGCUCUGAAAAAUGACTT against Sfmbt1, the z-score was inactive: 1.

In the case of GCAGAGUCGAAGUGAGAAGTT against Naca, the z-score was inactive: -0.641.

As for GGUAUGUUCAAGAUCAAUATT against Ints8, the z-score is inactive: 0.793.

Take “GCCACGAAACAUAGUCACUTT against 1810055G02Rik”: the z-score is inactive: -0.909.

Take CCUAUUUUUGCCCUAUAGUTT against Cfap52: the z-score is inactive: 0.209.

As to CCACCAUCUGCUCUAAUCATT against Got2, the z-score is inactive: -0.37.

CCUGUUUCUAACAACCACUTT against Isg20: the z-score is inactive: 0.264.

With GGAAUCUGGGCUCUUACACTT against Tfap2a, the z-score was inactive: -0.141.

Consider GGCAAAAAGCUCAAAAACATT against Fbxo32, for which the z-score is inactive: -1.78.

With CCAUGACCUAGGCAGAUAGTT against Tsga8, the z-score was inactive: -0.464.

With GGGAGCAUCAAAUUUUGAUTT against Wapl, the z-score was inactive: 0.832.

Consider GGUUGUAUAACUCAGAUCUTT against Olfr1311, for which the z-score was inactive: 1.14.

GGUGCAUAAAGAGAGCGAUTT against Ric8b: the z-score was inactive: -0.567.

Regarding UCGGAAAGGGCCAUGAUAATT against Bola1, the z-score is inactive: 0.898.

For CGAGUUUGUAAUGAUGCUATT against Cabp4, the z-score was active: 2.51.

As to GCUAACUUACCCAAAGAAATT against Tnfaip3, the z-score was inactive: 1.41.

Take CCAACUAUAACUCAGUCACTT against Ebf1: the z-score is inactive: -0.366.

As to GGAUGUUACAAAAGUCUGGTT against Rcc1l, the z-score was inactive: -0.0458.

With GGAAAAAAGGAACAAAUGCTT against Pde5a, the z-score is inactive: -0.962.

Turning to GGUCUAGCUCAAAAUCCCATT against Srek1, the z-score is inactive: -1.3.

For the sequence “CCUUAAGGAAUGCCAGCAATT against 5930403N24Rik”, the z-score was inactive: -0.395.

On to GCUAUACACUUGGCCCAUUTT against Sfr1, for which the z-score is inactive: -1.6.

Consider GGAAGAGCUGCUGAAAGAGTT against Tekt2, for which the z-score is inactive: 0.403.

As for GGACAAACUUCAAAAAGGUTT against Ccdc187, the z-score is inactive: -0.305.

For GGGUGUCUUCAACAAGUACTT against Dnttip1, the z-score was inactive: -1.71.

As to CGGAAUCAUACCCUGCUGUTT against Ube2q1, the z-score was inactive: -0.476.

With GGGAAAAGAGCUGGAUUCUTT against Pnpo, the z-score is inactive: -0.195.

For GCUAAAAGAUCAUUGGAGUTT against Ear10, the z-score was inactive: -1.02.

In the case of GCAUCCUAGCAGAGAUUUATT against Pla2r1, the z-score was inactive: 1.99.

Take GGUGUCUUUAUUUAAUAGGTT against Ccng2: the z-score is inactive: -0.135.

As for GGAAUCUACCACUUGGUUCTT against Chrdl2, the z-score is inactive: -0.936.

On to GGUGUUCAAAAAGUUUAACTT against Zswim1, for which the z-score is inactive: 1.02.

As to CGUUCAGGAAACUACAAAATT against Mto1, the z-score is inactive: 0.237.

With GCUCAUUGGGAUCAUUGGUTT against Fancd2, the z-score was inactive: 1.45.

As for “GCUCGUUUGUGUAUAAGGATT against 4930503L19Rik”, the z-score was inactive: 0.276.

For the sequence GGGAUCAAGUGUUUCGCUGTT against Apbb1, the z-score was inactive: -0.516.

As for GGCAUUAUGUCAUUGCUGATT against Alg14, the z-score is inactive: 0.682.

On to GCCGAACGAAUCCUCAAGUTT against Trim56, for which the z-score was inactive: 0.979.

As to CCAUAUGAAACUUAUAGCCTT against Nmi, the z-score was inactive: -0.104.

In the case of GCAAGGUGAUCACUCUCUCTT against Olfr187, the z-score is inactive: 0.533.

Take “GCUCUUGGCAAGGACAAUUTT against A830019P07Rik”: the z-score was inactive: 0.612.

Consider GGUGGUUCAGUUCAAUCGUTT against Lamtor3, for which the z-score is inactive: 0.974.

As to GGAAAUUGACAGAAUGGUUTT against Syf2, the z-score is inactive: -0.287.

In the case of GGUGUGGACUGUCAUCUCUTT against Olfr139, the z-score was inactive: 1.24.

Turning to GGAAAAAUCAUCCUGGCUCTT against Sptssa, the z-score is inactive: -1.02.

CCGGGAGAAUCAUCGAGAUTT against Cfap57: the z-score is inactive: -0.873.

As for GGAUGACAUGUCAUCAAAGTT against Vmn1r89, the z-score was inactive: -1.38.

As to GGUUCCAUUCCCUCACAAUTT against Bcl9, the z-score is inactive: -0.0313.

GGUGGUCACUAAGAAGUUCTT against Prps1l1: the z-score was active: 2.48.

For GGGUAUCAUGGGAAACAGATT against Atp12a, the z-score is inactive: -0.0515.

For GGAGUGUUAAGAUUUGGAATT against Chpt1, the z-score is inactive: 0.034.
